Measurements from the supplement of paper PMC10373366.
Structures can show the parent of a compound that is named as a salt. Some of the results follow. Most values come without repeats; read them as rough.

Each compound was assayed on A2780 (assay: cell growth inhibition ratio vs untreated control (CCK8); higher = stronger inhibition of cell viability). Details: 10 µM; 48 h.
Protocol: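 Natural product library (Topscience) screened at 10 µM final concentration for 48 h on ovarian cancer A2780 cells and patient-derived ovarian cancer cells (PDC) in 96-well plates; viability read by CCK8 and reported as inhibition ratio (%) relative to untreated control. Single-dose primary screen.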

Compound	cell growth inhibition ratio [%]
C[C@]12CCC(=O)C=C1CC[C@@H]1[C@@H]2[C@@H](O)C[C@@]2(C)[C@H]1CC[C@]2(O)C(=O)CO [Hydrocortisone]	9.42
CCOC(=O)c1cc(O)c(O)c(O)c1 [Ethyl gallate]	5.6
COc1cc2c(cc1CC=C(C)C)C(=O)C[C@@H](c1ccc(O)cc1)O2 [Bavachinin]	16.2
C=C1CC[C@H](O)C/C1=C/C=C1\CCC[C@]2(C)[C@@H]([C@H](C)/C=C/[C@H](C)C(C)C)CC[C@@H]12 [Vitamin D2]	3.27
C[C@H]1CC[C@@]2(OC1)O[C@H]1C[C@H]3[C@@H]4CC[C@@H]5C[C@@H](O[C@@H]6O[C@H](CO)[C@H](O)[C@H](O)[C@H]6O[C@@H]6O[C@H](CO)[C@@H](O)[C@H](O)[C@H]6O)CC[C@]5(C)[C@H]4CC[C@]3(C)[C@H]1[C@@H]2C [Timosaponin AIII]	93.2
O=C(O)CCCCCCCC(O)C(O)CCCCCCO (centres undefined) [Aleuritic Acid]	-2.21
CC(C)(S)[C@@H](N)C(=O)O [Artamine]	-2.58
CC(=O)N[C@H]1[C@H]([C@H](O)[C@H](O)CO)OC(O)(C(=O)O)C[C@@H]1O (some centres undefined) [N-Acetylneuraminic acid]	-5.35
COc1ccc(-c2oc3c(CC=C(C)C)c(O[C@@H]4C[C@H](CO)[C@@H](O)[C@H](O)[C@H]4O)cc(O)c3c(=O)c2O[C@@H]2O[C@@H](C)[C@H](O)[C@@H](O)[C@H]2O[C@@H]2O[C@H](CO)[C@@H](O)[C@H](O)[C@H]2O)cc1 [Epimedin A]	8.93
CC[C@H](C)[C@H](N)C1=N[C@H](C(=O)N[C@@H](CC(C)C)C(=O)N[C@H](CCC(=O)O)C(=O)N[C@H](C(=O)N[C@H]2CCCCNC(=O)[C@H](CC(N)=O)NC(=O)[C@@H](CC(=O)O)NC(=O)[C@H](Cc3cnc[nH]3)NC(=O)[C@@H](Cc3ccccc3)NC(=O)[C@H]([C@@H](C)CC)NC(=O)[C@@H](CCCN)NC2=O)[C@@H](C)CC)CS1 [Bacitracin]	4.12
Oc1cc(O)c2c(c1)O[C@H](c1ccc(O)c(O)c1)[C@H](O)C2 [Epicatechin]	-6.73
COc1c(O)cc2oc3cc(O)c(CC=C(C)C)c(O)c3c(=O)c2c1CC=C(C)C [Mangostin]	26.4
Cc1nc(C)c(C)nc1C [Ligustrazine hydrochloride]	10.5
CC1(C)CC[C@]2(C)CC[C@]3(C)C(=CC[C@@H]4[C@@]5(C)CC[C@@H](O)[C@](C)(C(=O)O)[C@@H]5CC[C@]43C)[C@@H]2C1	17
CC[C@H](C)[C@H](N)C(=O)O [isoleucine]	7.68
C[C@@H]1C(=O)O[C@H](C)[C@H]1C[C@@H](O)[C@](C)(O)[C@H]1CC[C@@]2(O)C3=CC(=O)[C@@H]4C[C@@H](O)[C@@H](O)C[C@]4(C)[C@H]3CC[C@]12C [Cyasterone]	10.8
CC(=O)OCC(=O)[C@@]1(O)CC[C@H]2[C@@H]3CCC4=CC(=O)C=C[C@]4(C)[C@@]3(Cl)[C@@H](Cl)C[C@@]21C [Dichlorisone Acetate]	9.74
O=c1[nH]cnc2nc[nH]c12 [6-Hydroxypurine]	-1.29
COc1cc(C2Oc3cc([C@H]4Oc5cc(O)cc(O)c5C(=O)[C@@H]4O)ccc3OC2CO)ccc1O (some centres undefined) [Silibinin]	7.5
COC(=O)c1cc(O)c(O)c(O)c1 [Methyl gallate]	5.5

Compound	cell growth inhibition ratio [%]
Cc1ncc(CO)c(CO)c1O [Pyridoxine hydrochloride]	4.64
C[n+]1cccc(C(=O)[O-])c1 [Trigonelline hydrochloride]	-0.946
COc1c(O)cc2occ(-c3ccc(O)cc3)c(=O)c2c1O [Tectorigenin]	22.1
N[C@@H](CCC(=O)N[C@@H](CS)C(=O)NCC(=O)O)C(=O)O [Glutathione]	5.75
CC(C)=CCC[C@](C)(O[C@@H]1O[C@H](CO[C@@H]2OC[C@@H](O)[C@H](O)[C@H]2O)[C@@H](O)[C@H](O)[C@H]1O)[C@H]1CC[C@]2(C)[C@@H]1[C@H](O)C[C@@H]1[C@@]3(C)CC[C@H](O[C@@H]4O[C@H](CO)[C@@H](O)[C@H](O)[C@H]4O[C@@H]4O[C@H](CO)[C@@H](O)[C@H](O)[C@H]4O)C(C)(C)[C@@H]3CC[C@]12C [Ginsenoside Rb3]	12.8
Oc1cc(O)c2c(c1)O[C@H](c1ccc(O)c(O)c1)[C@@H](O)C2 [Cianidanol]	8.03
CC[C@@H]1/C=C(\C)C[C@H](C)C[C@H](OC)[C@H]2O[C@@](O)(C(=O)C(=O)N3CCCC[C@H]3C(=O)O[C@H](/C(C)=C/[C@@H]3CC[C@@H](O)[C@H](OC)C3)[C@H](C)[C@@H](O)CC1=O)[C@H](C)C[C@@H]2OC [Ascomycin (FK520)]	84
COc1cc2c(=O)c(-c3ccc(O)cc3)coc2cc1O[C@@H]1O[C@H](CO)[C@@H](O)[C@H](O)[C@H]1O [Glycitin]	-3.59
CC[C@H](/C=C/[C@@H](C)[C@H]1CC[C@H]2[C@@H]3CC=C4C[C@@H](O)CC[C@]4(C)[C@H]3CC[C@]12C)C(C)C [Stigmasterol]	3.22
COc1ccc(-c2oc3cc(O)cc(O)c3c(=O)c2O)cc1 [kaempferide]	7.67
COc1cc(C(=O)O)cc(OC)c1O [Syringic acid]	-12.4
COc1c2c(cc3oc(C)cc(=O)c13)OC(C(C)(C)O[C@@H]1O[C@H](CO)[C@@H](O)[C@H](O)[C@H]1O)C2 (some centres undefined) [5-O-Methylvisammioside]	-3.28
CC1(C)CC[C@]2(C(=O)O)CC[C@]3(C)C(=CC[C@@H]4[C@@]5(C)C[C@@H](O)[C@H](O)C(C)(C)[C@@H]5CC[C@]43C)[C@@H]2C1 [Maslinic acid]	24
COC(=O)C1=CO[C@@H](O[C@@H]2O[C@H](CO)[C@@H](O)[C@H](O)[C@H]2O)[C@@H]2[C@H](C)O[C@@H](O)C[C@H]12 [Morroniside]	13.8
CC1=C(/C=C/C(C)=C/C=C/C(C)=C/C=C/C=C(C)/C=C/C=C(C)/C=C/C2=C(C)C(=O)[C@@H](O)CC2(C)C)C(C)(C)C[C@H](O)C1=O [Astaxanthin]	1.95
O=C([O-])c1cc(=O)[nH]c(=O)[nH]1.O=C([O-])c1cc(=O)[nH]c(=O)[nH]1.[Zn+2]	21.3
O=C(O)c1cc(O)c(O)c(O)c1 [Gallic acid]	-1.62
O=P(O)(O)O[C@H]1[C@H](OP(=O)(O)O)[C@@H](OP(=O)(O)O)[C@H](OP(=O)(O)O)[C@@H](OP(=O)(O)O)[C@H]1OP(=O)(O)O [Phytic acid]	16.5
C[C@H]1[C@H](C)CC[C@]2(C(=O)O)CC[C@]3(C)C(=CC[C@@H]4[C@@]5(C)C[C@@H](O)[C@H](O)[C@@](C)(CO)[C@@H]5CC[C@]43C)[C@H]12 [Asiatic acid]	9.24

A portion taken from the entries so far, as a working copy:
Compound	cell growth inhibition ratio [%]
Oc1cc(O)c2c(c1)O[C@H](c1ccc(O)c(O)c1)[C@@H](O)C2 [Cianidanol]	8.03
CC[C@@H]1/C=C(\C)C[C@H](C)C[C@H](OC)[C@H]2O[C@@](O)(C(=O)C(=O)N3CCCC[C@H]3C(=O)O[C@H](/C(C)=C/[C@@H]3CC[C@@H](O)[C@H](OC)C3)[C@H](C)[C@@H](O)CC1=O)[C@H](C)C[C@@H]2OC [Ascomycin (FK520)]	84
